Assays:
[1] = Particle size distribution (PSD) by Malvern analysis of micronized powders, initial and after humidity exposure; details: 30° C./65% RH 3 days and 25° C./90% RH 4 hours, open tray
[2] = Uniformity of distribution of the active ingredients in the powder blend by HPLC; type: physicochemical; details: Example 3 powder formulation; 10 samples from different parts of the blend; mean value±RSD

With C[N+]1(C)CCC(OC(=O)C(O)(c2ccccc2)C2CCCC2)C1 (racemic) [GB, glycopyrronium bromide] the “Change of particle size distribution upon exposure to humidity (agglomeration)” value [1] was “significant increase of the particle size” and the Uniformity of distribution [2] was 101.4 (±1.6).
